Data taken from publication PMC6351032.
No constants are given. Whether binding was seen depends on the method and setting.

Target: human epidermal growth factor receptor HER2/neu (human (endogenous in SK-BR-3)) (UniProt P04626)
Test: flow cytometry on cells; ~10^5 SK-BR-3 cells (HER2-positive) incubated with the protein at 2 μm in PBS with 1% bovine serum albumin on ice for 15 min, washed twice; FL1 channel (488 nm laser, 533/30 BP), live single cells; HER2-negative CHO cells as control; only the binder purified

binding: no binding (tested: 2 μm)
B1: FITC-conjugated beta-lactoglobulin (protein, UniProt P02754 17-178)
chain: LIVTQTMKGLDIQKVAGTWYSLAMAASDISLLDAQSAPLRVYVEELKPTPEGDLEILLQKWENGECAQKKIIAEKTKIPAVFKIDALNENKVLVLDTDYKKYLLFCMENSAEPEQSLACQCLVRTPEVDDEALEKFDKALKALPMHIRLSFNPTQLEEQCHI
modifications: conjugated to FITC (fluorescein isothiocyanate), sites not stated
